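Lysine-tRNA ligase, Plasmodium falciparum 3D7 (UniProt Q8IDJ8). Enzyme assay of the cytosolic lysyl-tRNA synthetase in 384-well plates, read by luminescence. Compounds at 30 µM. Higher reads as stronger inhibition, judged from the few compounds that gave an IC50. About 69,000 compounds were tested under these conditions; 0.071% (about 49) showed 50% or more at least once.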

The chains behind the UniProt entries cited, without tags or fusion partners. Residues count along the entry.
UniProt Q8IDJ8, 1-583: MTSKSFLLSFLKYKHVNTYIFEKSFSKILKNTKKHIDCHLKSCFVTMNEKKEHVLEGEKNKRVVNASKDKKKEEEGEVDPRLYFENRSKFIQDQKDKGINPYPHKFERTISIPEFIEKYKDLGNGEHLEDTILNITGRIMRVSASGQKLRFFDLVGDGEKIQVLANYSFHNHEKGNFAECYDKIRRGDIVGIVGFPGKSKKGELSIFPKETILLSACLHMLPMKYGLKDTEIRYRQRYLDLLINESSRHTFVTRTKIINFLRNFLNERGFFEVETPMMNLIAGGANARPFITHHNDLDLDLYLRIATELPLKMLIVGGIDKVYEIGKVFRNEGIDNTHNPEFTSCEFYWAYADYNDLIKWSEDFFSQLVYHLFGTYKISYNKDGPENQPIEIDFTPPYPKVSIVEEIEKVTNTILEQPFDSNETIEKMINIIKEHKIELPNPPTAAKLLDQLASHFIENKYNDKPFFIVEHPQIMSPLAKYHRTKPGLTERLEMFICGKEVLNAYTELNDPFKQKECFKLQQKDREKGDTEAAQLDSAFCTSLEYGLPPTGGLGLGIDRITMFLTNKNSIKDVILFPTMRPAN

Values are the deposited “Percent Effect”, in %. How 0% and 100% were set is not recorded. Most values in the screen are low, and negative values occur. This is an unselected part of the compounds tested.

compound	effect
Cc1ccnc(NC(=O)C2(n3cnnn3)CCCCC2)c1	2.275%
CNc1cc(C2CCCN2C(=O)CCc2cnn(C)c2C)ccn1 (stereo not shown)	3.211%
CCn1nnc(NCc2cc(Cl)cc(Cl)c2OC)n1	-3.026%
CCCN(CC)C(=O)c1ncn2c1CN(C)S(=O)(=O)c1ccccc1-2	2.214%
Cc1ccc(C(=O)Nc2ccc(OC3CCN(C)CC3)cc2)c(C)c1	0.1838%
Cc1cnc(C(=O)N2C[C@H]3CCCC(OCc4cccnc4)[C@H]3C2)cn1 (stereo partly shown)	1.323%
NC(=O)CN1CCC(NC(=O)N2CCCC2c2ccncc2)CC1 (stereo not shown)	2.93%
Cc1csc([C@@H]2C[C@@H]3CCN(Cc4cnn(C)c4)C[C@H]3O2)n1	2.561%
Cc1noc(C)c1CN1C[C@@H](OCc2ccccn2)[C@H]2OCCC[C@H]21	3.596%
CC(C)(C)CN1CCCC12CCN(S(=O)(=O)c1ccccc1)C2 (stereo not shown)	2.508%
CC1CCCCN1C(=O)COCc1nc(-c2ccncc2)no1 (stereo not shown)	6.907%
Cc1nn(C)c(C)c1NC(=O)Nc1cccnc1N1CCCC1	9.238%
Cc1cc(NC(=O)N2CCOCC2)nn1-c1cccc(Cl)c1	1.707%
CN(Cc1nc(C(F)(F)F)cs1)C(=O)CCc1ccccn1	-3.778%
Cn1cc(C(=O)N2CCCC(C(=O)CCc3ccccc3)C2)cn1 (stereo not shown)	7.59%
Cc1ccc(N2CCCN(C(=O)CCc3ccsc3)CC2)nn1	2.326%
Cn1cc(S(=O)(=O)N2CCCC2Cn2ccnc2)cn1 (stereo not shown)	5.556%
CN(Cc1nnc(C2CC2)o1)C1CCN(CCc2cccs2)C1 (stereo not shown)	-0.6106%
CCC[C@H]1CN(CCCO)C[C@@H]1NC(=O)Cn1cc(C)cn1	7.725%
COCCc1ncc(CN2C[C@@H](C(=O)O)[C@H](C(C)C)C2)cn1	-1.12%
Cn1nnnc1SC1CCCN(c2ccccc2Cl)C1=O (stereo not shown)	5.544%
CC(=O)N1CCCC1c1cccc(Cc2ccccc2Cl)n1 (stereo not shown)	2.469%
CC(C)NC(=O)N1CCC(n2ccc(C(F)(F)F)n2)CC1	3.049%
CN(c1ccccc1C(=O)O)S(=O)(=O)c1cccc2cccnc12	3.556%
COc1cccc2c1OCCCN(c1nc3c(c(=O)[nH]1)CCNCC3)C2	0.09596%
CCN(C)C[C@@H]1CN(S(=O)(=O)c2cccc(Cl)c2)C[C@@H]1CO	-0.4354%
c1cncc(-c2noc(CCNc3ncnc4c3CCNCC4)n2)c1	-1.477%
O=C1CN(C(=O)c2ccc(Cl)cc2)CC(O)CN1Cc1cccs1 (stereo not shown)	4.483%
Cc1cc(C(=O)N2CCN(Cc3ccsc3)CC2)c(C)n1C1CC1	4.071%
CCc1noc(CNc2ccc(F)cc2OCC2CC2)n1	4.741%
Cc1cc(CS(=O)(=O)C(C)c2ccc(F)cc2)on1 (stereo not shown)	5.975%
C[C@H]1C[C@H]2CN(C(=O)C3=CCCCC3)CC[C@H]2O1	0.9866%
CC(Cn1cccn1)NC(=O)N1CCN(Cc2ccco2)CC1 (stereo not shown)	-0.1906%
COCCOc1ccc(Cl)c(C(=O)N2CCN(CCO)CC2)n1	-0.6399%
Cn1ccnc1C1(O)CCN(C(=O)Cc2ccccc2)CC1	2.926%
Cc1cc(NC(=O)CN2CCn3c(nnc3C3CC3)C2)on1	-1.313%
CN(C)CCn1ccnc1C1CCCN(c2cc(N)ncn2)C1 (stereo not shown)	2.681%
CC(=O)N1CCC(c2nccnc2-c2ccc(C(=O)O)cc2)CC1	-0.7601%
CCCc1noc(CCCC(=O)N2CCCC2c2cnn(C)c2)n1 (stereo not shown)	1.315%
O=C1CCC2(CCN(c3ncc(F)cn3)CC2)N1Cc1ccncc1	-4.401%
CCc1nc(CNCC2CCCN2c2cc(NC)ncn2)cs1 (stereo not shown)	-1.5%
CC(C(=O)NCCCN1CCN(c2ccccc2)CC1)n1cncn1 (stereo not shown)	0.8996%
COCC(C)(NC(=O)c1cc(Cl)c(-n2cccc2)cc1OC)C(N)=O (stereo not shown)	-1.275%
CS(=O)(=O)N1CCC2(CCCN(Cc3ccccn3)C2)C1 (stereo not shown)	-1.992%
O[C@@H]1C[C@H]2CN(CC3CCCCC3)[C@H](Cc3ccccc3)CN2C1	-1.939%
CCc1ccccc1Nc1noc2c1CN(C(=O)CNC(C)=O)CC2	1.283%
Cc1cc(C(=O)N2CCN(Cc3ccco3)C(CCO)C2)cc(=O)[nH]1 (stereo not shown)	1.833%
Cc1c(NC(=O)c2cnc[nH]2)cccc1C(=O)NC(C)(C)C	5.538%
Clc1snnc1CN1CCCC1Cn1cncn1 (stereo not shown)	-2.578%
Cc1cnn(CC2CN(CC(=O)Nc3c(C)nn(C)c3C)CCO2)c1 (stereo not shown)	4.335%
CC1CCN(S(=O)(=O)N2CCCN(CC3CCCO3)CC2)CC1 (stereo not shown)	3.23%
Cc1cc(C(=O)N2CCCC(n3cncn3)C2)c(C)n1CC1CC1 (stereo not shown)	1.568%
CC(C)(CO)Nc1cc(-c2ccncc2)ncn1	1.516%
CC1CN(C(=O)c2ccnc(-n3cncn3)c2)c2ccccc2S1 (stereo not shown)	7.515%
Cc1ccc(C2COCCN2C(=O)c2ccc(C#N)cc2)o1 (stereo not shown)	3.431%
CC1CCN(CCCNS(=O)(=O)c2cccc(F)c2)CC1	3.48%
CCNC(=O)C(C)Oc1ccc(N(C)S(C)(=O)=O)cc1 (stereo not shown)	3.077%
COCCc1ncc(CNC2(c3ccc(Cl)cc3Cl)CC2)cn1	0.745%
O=C(c1cnccn1)N1CCCC2(COCCN(CC3CC3)C2)C1 (stereo not shown)	4.227%
Cc1ccc(CNC2CCCc3c2cnn3C)s1 (stereo not shown)	-0.9456%
Cc1cc(N2CCCC2c2cnccn2)ncn1 (stereo not shown)	3.605%
CC(C)=CCCN1CCN(C)C2(CCC(=O)N(C)CC2)C1 (stereo not shown)	0.8658%
O=C(NC1CCN(c2ccc(-c3ccccc3F)nn2)C1)c1ccc[nH]1 (stereo not shown)	-0.07922%
Cc1ccnc(NCc2cccc(OCCN3CCOCC3)c2)n1	3.847%
CN(Cc1cnn(C)c1)C(=O)NCc1csc(Br)c1	1.868%

Data taken from ChEMBL document CHEMBL3988442, “University of Dundee, Small-Polar-MMV Screening Library” (2021).